Here are results for two molecules from patent KR20130126543A.

Sequences of proteins named here, by UniProt entry; tags and fusion partners are left off. Residues count along the entry.
UniProt P08887, residues 20-365: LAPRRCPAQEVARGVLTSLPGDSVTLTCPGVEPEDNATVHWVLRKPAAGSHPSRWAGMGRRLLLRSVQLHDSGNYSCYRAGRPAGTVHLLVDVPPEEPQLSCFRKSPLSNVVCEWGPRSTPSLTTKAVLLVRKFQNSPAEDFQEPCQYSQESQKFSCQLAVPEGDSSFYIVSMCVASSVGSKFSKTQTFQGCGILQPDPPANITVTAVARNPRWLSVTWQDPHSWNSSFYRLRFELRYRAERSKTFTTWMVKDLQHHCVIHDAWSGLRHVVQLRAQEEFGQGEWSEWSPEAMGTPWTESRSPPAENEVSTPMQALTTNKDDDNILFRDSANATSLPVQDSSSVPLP

Results are given in words; binding and its absence hold for the method and conditions named. Some entries that bind do so weakly or less than the wild type.

The assay has as its target IL-6R-Fc 항원 (human) (UniProt P08887). Nature of the assay: ELISA titration on coated IL-6R.

B1: 항 IL-6R 단클론 항체 F2 (antibody, V domains shown)
VH: QVQLVESGAEVKKPGASVKVSCKASGYTFTNYYMHWVRQAPGQGLEWMGIINPSGGNTGYAQKFQGRVTMTRDMSTSTAYMELSSLRSEDTAVYYCARGLPWGENGLDVWGQGTTVTVSS
VL: SQLVLTQPSSVSGAPGQTVTISCTGSSSNIGAGYDVHWYQQLPGTAPKVLIYGDSDRPSGVPDRFSGSKSATSASLAITGLQAEDEADYYCQSYDSSLSAYVFGTGTKVTVL
B1: the binding entry is on record as “binds”.

B2: 항 IL-6R 단클론 항체 A7 (antibody, V domains shown)
VH: QMQLVESGGGLVQPGTSLRLSCAASGFKFEDYAMHWVRQAPGKGLEWVSGVSWNSGTIAYVDSVKGRFTISRDNAKNSLYLQMNSLRAEDTAVYYCARDFTYFYESSGYYAFDLWGQGTMVTVSS
VL: SQLVLTQPPSVSGAPGQRVTISCTGTNSNIGAGYDVHWYQQVPGTTPKLLIYGNTNRPSGVPDRFSGSKSGTSASLAITGLQAEDGGDYYCQSFDSSLTGSVFGTGTKVTVL
As for B2, the binding entry was “binds”.
